According to patent EP4799647A1 (Shanghai Qilu Pharmaceutical Research and Development …, priority 2023, dated 2025):

Experiment: general procedure: solution-phase peptide synthesis; HATU/DIPEA; DMTMM
Conditions: for conjugation yield: conjugation step

2-amino-N-[(9S)-9-benzyl-1-[(4S)-4-ethyl-8,9-difluoro-4-hydroxy-3,14-dioxo-1,3,4,12-tetrahy dropyrano[3',4':6,7]indolizino[1,2-b]quinolin-11-yl]-5,8,11-trioxo-2-oxa-4,7,10-triazadodeca n-12-yl]acetamide (C1-9)
step yield (late stage modification step): 89.1%

2-methylpropan-2-yl {[(7S)-7-benzyl-11-{[(1S,9S)-9-ethyl-5-fluoro-9-hydroxy-4-methyl-10,13-dioxo-2,3,9,10,12,15 -hexahydro-1H-cyclohexo[1,2,3-de]pyrano[3',4':6,7]indolizino[1,2-b]quinolin-1-yl]amino}-2, 5,8,11-tetraoxo-3,6,9-triazaaundecan-1-yl]amino}formate
conjugation yield: 61.2%

9H-fluoren-9-ylmethyl {[(7S)-7-benzyl-11-{[4-(hydroxymethyl)phenyl]amino}-2,5,8,11-tetraoxo-3,6,9-triazoundecan -1-yl]amino}formate
step yield (late stage modification step): 82.8%

9H-fluoren-9-ylmethyl {[(9S)-9-benzyl-1-[(4S)-4-ethyl-8,9-difluoro-4-hydroxy-3,14-dioxo-1,3,4,12-tetrahydropyran o[3',4':6,7]indolizino[1,2-b]quinolin-11-yl]-5,8,11,14-tetraoxo-2-oxa-4,7,10,13-tetraazapenta decan-15-yl]amino}formate (C1-8)
step yield (coupling step): 78.2%

9H-fluoren-9-ylmethyl {[(9S,18S)-9-benzyl-1-[(4S)-4-ethyl-8,9-difluoro-4-hydroxy-3,14-dioxo-1,3,4,12-tetrahydropy rano[3',4':6,7]indolizino[1,2-b]quinolin-11-yl]-5,8,11,14,17,24-hexaoxo-4,7,10,13,16,23-hexaa za-2,26,29,32,35,38,41,44,47-nonaoxaoctatetracontan-18-yl]amino}formate
step yield (coupling step): 44.7%

(4-{[(22S)-1-amino-22-benzyl-14,17,20,23,26-pentaoxo-15,18,21,24-tetraaza-3,6,9,12-tetraox ahexacosan-26-yl]amino}phenyl)methyl
step yield (late stage modification step): 100%

N-[(1S,9S)-9-ethyl-5-fluoro-9-hydroxy-4-methyl-10,13-dioxo-2,3,9,10,12,15-hexahydro-1H-c yclohexo[1,2,3-de]pyrano[3',4':6,7]indolizino[1,2-b]quinolin-1-yl]-2-{[(2S)-8-amino-2-benzyl -1,4,7-trioxo-3,6-diazaoct-1-yl]amino}acetamide
step yield (late stage modification step): 100%

N-[(7S)-7-benzyl-11-{[(1S,9S)-9-ethyl-5-fluoro-9-hydroxy-4-methyl-10,13-dioxo-2,3,9,10,12,1 5-hexahydro-1H-cyclohexo[1,2,3-de]pyrano[3',4':6,7]indolizino[1,2-b]quinolin-1-yl]amino}-2,5,8,11-tetraoxo-3,6,9-triazaaundecan-1-yl]
conjugation yield (run 1): 34.2%
conjugation yield (run 2): 30.0%
conjugation yield (run 3): 27.6%
conjugation yield (run 4): 33.9%
conjugation yield (run 5): 28.2%

N-[(9S)-9-benzyl-1-[(4S)-4-ethyl-8,9-difluoro-4-hydroxy-3,14-dioxo-1,3,4,12-tetrahydropyra no[3',4':6,7]indolizino[1,2-b]quinolin-11-yl]-5,8,11-trioxo-2-oxa-4,7,10-triazadodecan-12-yl]-2-{[(31S)-31-amino-25,32-dioxo-26-aza-2,5,8,11,14,17,20,23-octaoxadotriacontan-32-yl]amin o}ac
step yield (late stage modification step): 78.7%
